# At least one structure is not confirmed: it was looked up by name or label, or the drawing left a doubt.
# System: B16 melanoma cells
# Test: Calcium dependence of cell aggregation
# Assay type: cell-based, murine
# Conditions: absence of Ca^++; 3 lines, after 1 and 3 hours
compound,measurement,value
COc1ccc2cc1Oc1ccc(cc1)C[C@H]1c3cc(c(OC)cc3CCN1C)Oc1c(OC)c(OC)cc3c1[C@H](C2)N(C)CC3 [tetrandrine],percentage of cells isolated,very significantly increased
